At least one structure is not confirmed: it was looked up by name or label, or the drawing left a doubt.
What was measured:
Assay type in all cases: cell-based, human
[1] = system: AMPK (Thr 172 of α subunit); assay: Western blot, AMPK phosphorylation in HUVECs; conditions: adenoviral vectors MOI 50, 24 h; LY294002 10 μM, 1 h pretreatment
Akt (Ser 473) = assay: Western blot, Akt phosphorylation in HUVECs; conditions: adenoviral vectors MOI 50, 24 h; LY294002 10 μM, 1 h pretreatment
HUVECs [2] = assay: Migration assay (modified Boyden chamber); conditions: adiponectin 30 μg/ml; vectors MOI 50, 24 h; LY294002 10 μM, 1 h pretreatment
eNOS (Ser 1179) = assay: Western blot, eNOS phosphorylation in HUVECs; conditions: adenoviral vectors MOI 50, 24 h; LY294002 10 μM, 1 h pretreatment
HUVECs [3] = assay: Tube formation assay, HUVECs on Matrigel; conditions: adiponectin 30 μg/ml; vectors MOI 50, 24 h; LY294002 10 μM

O=c1cc(N2CCOCC2)oc2c(-c3ccccc3)cccc12 [LY294002, reference compound]
effect on adiponectin-induced AMPK phosphorylation [1]: no effect on AMPK phosphorylation
effect on adiponectin-induced Akt phosphorylation (Akt (Ser 473)): blocked
effect on adiponectin-stimulated endothelial migration (HUVECs [2]): abolished
effect on adiponectin-induced eNOS phosphorylation (eNOS (Ser 1179)): blocked
effect on adiponectin-induced tube formation (HUVECs [3]): abolished
